In US20200369765A1:
No constants are given. Whether binding was seen depends on the method and setting. Some entries that bind do so weakly or less than the wild type.

Protein sequences, listed by entry. Tags and fused reporters are not part of them. Lines headed by an entry give the natural chain unless they say otherwise; changes in a name come on top.
UniProt Q9Y336: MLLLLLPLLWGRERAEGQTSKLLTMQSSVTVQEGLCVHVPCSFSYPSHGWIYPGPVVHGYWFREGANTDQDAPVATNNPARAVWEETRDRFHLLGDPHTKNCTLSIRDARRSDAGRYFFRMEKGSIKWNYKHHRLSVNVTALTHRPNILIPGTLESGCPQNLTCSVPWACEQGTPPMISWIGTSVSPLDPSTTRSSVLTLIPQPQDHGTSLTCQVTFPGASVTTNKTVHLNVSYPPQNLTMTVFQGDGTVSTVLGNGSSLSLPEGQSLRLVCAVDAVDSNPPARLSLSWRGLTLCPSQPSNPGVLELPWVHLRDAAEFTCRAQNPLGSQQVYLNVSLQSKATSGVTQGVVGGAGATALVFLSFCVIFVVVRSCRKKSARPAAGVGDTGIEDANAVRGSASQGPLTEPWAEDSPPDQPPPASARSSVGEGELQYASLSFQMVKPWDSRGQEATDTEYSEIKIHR

Target: Human Siglec-9 mutant M1 (human) (UniProt Q9Y336)
Assay: flow cytometry, HEK293T transfectants

Binder | binding
mAb1 (antibody, human IgG1, V domains shown) VH: DVQLQESGPGLVKPSQSLSLTCTVTGYSITGGFAWNWIRQFPGNTLEWMGYIGYGGSTSYNPSLNSRISITRDTSKNHFFLQFNSVTTDDSATYYCARGDYLFAYWGQGTLVTVSA VL: DIVMTQSHKFMSTSVGDRVSITCKASQDVNTAVAWYQQKPGQSPKLLIYSASYRYTGVPDRFTGSGSGTDFTFTISSVQAEDLAVYYCQQHYSTPRTFGGGTKLEIK | binds
mAb2 (antibody, human IgG1, V domains shown) VH: EVQLQESGPGLVKPSQSLSLTCTVTGYSITGGFAWNWIRQFPGNTLEWMGYIGYGGSTSYNPSLNSRISITRDTSKNHFFLQFNSVTTEDSATYYCARGDYLFAYWGQGTLVTVSA VL: DIVMTQSHKFMSTSVGDRVSITCKASQDVNTAVAWYQQKPGQSPKLLIYSASYRYTGVPDRFTGSGSGTDFTFTISSVQAEDLAVYYCQQHYSTPRTFGGGTKLEIK | binds
mAb3 (antibody, human IgG1, V domains shown) VH: EVQLLETGPGLVKPSQSLSLTCTVTGYSITGGFAWNWIRQFPGNTLEWMGYIGYGGSTSYNPSLNSRISITRDTSKNHFFLQFNSVTTEDSATYYCARGDYLFAYWGQGTLVTVSA VL: DILMTQSPASLSASVGETVSITCRASGNIHNYLAWYLQRQGKSPQLLVYNAKTLADGVPSRFSGTGSGTQFSLKINSLQPEDFGSYYCQHFWSTPRTFGGGTKLEIK | binds
mAbA (antibody, human IgG1, V domains shown) VH: QVQLQQPGAELVKPGSPVKLSCKASYFTFTSYWMHWVRQRPGQGLEWIGEINPSNGHTNYNEKFESKATLTVDRSSSTAYMQLSSLTSEDSAVFYCANGVESYDFDDALDYWGQGTSVTVSS VL: DIQMTQTTSSLSASLGDRVTISCRASQDINNYLNWYQQKPDGTIKLLIYYTSRLHSGVPSRFSGSGSGTDYSLTINNLEQEDIATYFCQQGNTLPFTFGGGTKLEIK | binds
Fab.A (Fab of mAbA) (Fab, V domains shown) VH: QVQLQQPGAELVKPGSPVKLSCKASYFTFTSYWMHWVRQRPGQGLEWIGEINPSNGHTNYNEKFESKATLTVDRSSSTAYMQLSSLTSEDSAVFYCANGVESYDFDDALDYWGQGTSVTVSS VL: DIQMTQTTSSLSASLGDRVTISCRASQDINNYLNWYQQKPDGTIKLLIYYTSRLHSGVPSRFSGSGSGTDYSLTINNLEQEDIATYFCQQGNTLPFTFGGGTKLEIK | binds
Fab.B (Fab of mAbB) (Fab, V domains shown) VH: QVQLQQPGAELVKPGASVKLSCKASVYTFTSYWMHWVKQRPGQGLEWIGEINPSNGHTNYNEKFKTKAKLTVDKSSSTAYMQLSSLTSEDSAVYFCANGVETYDFDDAMDYWGQGTSVTVSS VL: DIQMTQTTSSLSASLGDRVTISCRASQDINNYLNWYQQKPDGTVKLLIYFTSRLHSGVPSRFSGSGSGTDYSLTISNLEQEDIATYFCQQGDTFPFTFGGGTKLEIK | binds
Fab.D (Fab of mAbD) (Fab, V domains shown) VH: QIQLVQSGPELKKPGETVKISCKASGYTFTDYSMHWVKQAPGKGLKWMGWIITETGEPTYADDFRGRFAFSLETSANTAYLQINNLKNEDTATYFCARDFDGYWGQGTTLTVSS VL: DILMTQSPASLSASVGETVTITCRASENIYSYLAWYQQKRGKSPQFLVYNAKTLTEGVPSRFRGSGSGTQFSLKINSLQPEDFGTYYCQHHYGFPWTFGGGTKLEIK | binds

More lines, now with the values ahead:

binding | Binder
binds | mAbF (antibody, human IgG1, V domains shown) VH: QVQLQQSGPEVVRPGVSVKISCKGSGYTFTDYSMHWVKQSHAKSLEWIGVISTYNGNTNYNQKFKGKATMTVDKSSSTAYMELARLTSEDSAIYYCARRGYYGSSSWFGYWGQGTLVTVSA VL: DIVMTQSQKFMSTSVGDRVSVTCKASQNVGTDVAWYQQKPGQSPEALIYSASYRYSGVPDRFTGSGSGADFTLTISNVQSEDLAEYFCQQYNSFPYTFGGGTKLEIK
binds | mAbE (antibody, human IgG1, V domains shown) VH: DVQLVESGGGLVQPGGSRKLSCAASGFTFSTFGMHWVRQAPEKGLEWVAYISSGSNAIYYADTVKGRFTISRDNPKNTLFLQMTSLRSEDTAMYYCASPGYGAWFAYWGQGTLVTVSA VL: ENVLTQSPAIMSASPGEKVTMTCRASSSVSSAYLHWYQQKSGASPKLWIYSTSNLASGVPARFSGSGSGTSYSLTISSVEAEDAATYYCQQYSAYPYTFGGGTKLEIK
binds | mAbC (antibody, human IgG1, V domains shown) VH: QIQLVQSGPELKKPGETVKISCKASGYTFTNYEMNWVKEAPGKGLKWMGWINTYTGESTYADDFKGRFAFSLETSASTVYLQINNLKDEDVATYFCVRDDYGRSYGFAYWGQGTLVTVSA VL: NIVLTQSPASLTVSLGQRANISCRASESVDSYGNSFMHWYQQKPGQPPKLLIYLASKLESGVPARFSGSGSRTDFTLTIDPVETDDAATYYCHQNNEDPPWTFGGGTKLEIK
binds | mAbB (antibody, human IgG1, V domains shown) VH: QVQLQQPGAELVKPGASVKLSCKASVYTFTSYWMHWVKQRPGQGLEWIGEINPSNGHTNYNEKFKTKAKLTVDKSSSTAYMQLSSLTSEDSAVYFCANGVETYDFDDAMDYWGQGTSVTVSS VL: DIQMTQTTSSLSASLGDRVTISCRASQDINNYLNWYQQKPDGTVKLLIYFTSRLHSGVPSRFSGSGSGTDYSLTISNLEQEDIATYFCQQGDTFPFTFGGGTKLEIK
binds | mAbD (antibody, human IgG1, V domains shown) VH: QIQLVQSGPELKKPGETVKISCKASGYTFTDYSMHWVKQAPGKGLKWMGWIITETGEPTYADDFRGRFAFSLETSANTAYLQINNLKNEDTATYFCARDFDGYWGQGTTLTVSS VL: DILMTQSPASLSASVGETVTITCRASENIYSYLAWYQQKRGKSPQFLVYNAKTLTEGVPSRFRGSGSGTQFSLKINSLQPEDFGTYYCQHHYGFPWTFGGGTKLEIK
